Source: PubChem BioAssay AID330 (DTP/NCI, 2004)
The list shows only some results of the screen, not a fair sample: it gathers tests that were run many times, whatever their T/C, doses with no T/C, and many T/C values between a quarter and a half above the control. Other doses and runs of a compound stand elsewhere. T/C is the treated group as % of the vehicle group. Some doses have a count of surviving animals in place of a T/C: the source files T/C as zero there, which appears to mark a toxic dose or a test without result, not a measured value. Some doses without a T/C left all or most animals alive at the check, yet need not have been tolerated: survival well below the control is almost never listed, so the zero probably covers shortened survival too. Counts of survivors are from the toxicity check (mostly the fifth day) where no day follows; animals may have died later. Schedule codes are those of the source, read here as Q, the interval in days (D) or hours (H), X, the number of doses. For survival time, the PubChem record calls one and a half times the control and up active, and a quarter to a half above the control has no call in these data; cut-offs in other NCI protocols can differ. Some entries hold several experiments; the values are given in rising order. Some T/C values are followed by the survivors on the day toxicity was checked, most often the fifth; without a count, all were alive then.

Test system: P388 leukemia ip, CD2F1 mice, survival T/C
Experiment: NCI In Vivo Anticancer Drug Screen. Data for tumor model P388 Leukemia (intraperitoneal) in CD2F1 (CDF1) mice
Conditions: T/C endpoint: median survival time, higher T/C = longer survival
[1] = dose: 50.0 mg/kg/injection, schedule: Q01DX009 (ip), vehicle: Klucel (hydroxypropylcellulose) (HPC)
[2] = dose: 100.0 mg/kg/injection, schedule: Q01DX009 (ip), vehicle: Klucel (hydroxypropylcellulose) (HPC)
[3] = dose: 120.0 mg/kg/injection, schedule: Q01DX005 (ip), vehicle: saline with Tween-80
[4] = dose: 200.0 mg/kg/injection, schedule: Q01DX009 (ip), vehicle: Klucel (hydroxypropylcellulose) (HPC)
[5] = dose: 100.0 mg/kg/injection, schedule: Q01DX009 (ip), vehicle: saline with Tween-80
[6] = dose: 200.0 mg/kg/injection, schedule: Q01DX009 (ip), vehicle: saline with Tween-80
[7] = dose: 400.0 mg/kg/injection, schedule: Q04DX003 (ip), vehicle: Klucel (hydroxypropylcellulose) (HPC)
[8] = dose: 50.0 mg/kg/injection, schedule: Q01DX005 (ip), vehicle: Klucel (hydroxypropylcellulose) (HPC)
[9] = dose: 200.0 mg/kg/injection, schedule: Q01DX005 (ip), vehicle: Klucel (hydroxypropylcellulose) (HPC)
[10] = dose: 25.0 mg/kg/injection, schedule: Q01DX009 (ip), vehicle: Klucel (hydroxypropylcellulose) (HPC)

## Cc1cc[n+](Cc2cc3ccccc3nc2Cl)cc1C
dose: 30.0 mg/kg/injection, schedule: Q01DX005 (ip), vehicle: saline
  survivor count: 3 of 6
dose: 60.0 mg/kg/injection, schedule: Q01DX005 (ip), vehicle: saline
  survivor count: 0 of 6
dose: 120.0 mg/kg/injection, schedule: Q01DX005 (ip), vehicle: saline
  survivor count: 0 of 6
dose: 240.0 mg/kg/injection, schedule: Q01DX005 (ip), vehicle: saline
  survivor count: 0 of 6

## CCN(Cc1ccc(Cl)c(Cl)c1)c1ccc2nc(N)nc(N)c2c1C
[1]
  survivor count: 6 of 6
[2]
  survivor count: 0 of 6

## CCN(CC)CCCC(C)Nc1cc(/C=C/c2ccc(Cl)cc2)nc2ccc(N(C)C)cc12 (stereo not drawn)
dose: 30.0 mg/kg/injection, schedule: Q01DX005 (ip), vehicle: saline with Tween-80
  survivor count: 2 of 6
dose: 60.0 mg/kg/injection, schedule: Q01DX005 (ip), vehicle: saline with Tween-80
  survivor count: 1 of 6
[3]
  survivor count: 0 of 6
dose: 240.0 mg/kg/injection, schedule: Q01DX005 (ip), vehicle: saline with Tween-80
  survivor count: 0 of 6

## Cc1cc(N=Cc2cccs2)ccc1Br
[4]
  T/C: 129 % of control

## CS[C@@H]1C[C@H]2[C@@H]3CCC4=CC(=O)CC[C@]4(C)[C@H]3CC[C@]2(C)[C@H]1C(C)=O
[5]
  survivor count: 6 of 6
[6]
  survivor count: 6 of 6
dose: 400.0 mg/kg/injection, schedule: Q01DX009 (ip), vehicle: saline with Tween-80
  survivor count: 6 of 6

## Brc1ccc(C2=CSC3=NCCN23)cc1
dose: 50.0 mg/kg/injection, schedule: Q01DX009 (ip), vehicle: saline with Tween-80
  survivor count: 0 of 6
[5]
  survivor count: 0 of 6
[6]
  survivor count: 0 of 6

## C=COC(=O)N(C)C
dose: 100.0 mg/kg/injection, schedule: Q01DX009 (ip), vehicle: saline
  T/C: 127 % of control [5 of 6 alive]
dose: 200.0 mg/kg/injection, schedule: Q01DX009 (ip), vehicle: saline
  T/C: 137 % of control [5 of 6 alive]
dose: 400.0 mg/kg/injection, schedule: Q01DX009 (ip), vehicle: saline
  survivor count: 0 of 6

## NC(N)=Nc1c(N)ncnc1N
[3]
  survivor count: 6 of 6

## CCN(CC)c1ccc2cc(-c3nc4ccccc4n3C)c(=O)oc2c1
dose: 100.0 mg/kg/injection, schedule: Q04DX003 (ip), vehicle: Klucel (hydroxypropylcellulose) (HPC)
  T/C: 129 % of control
[7]
  survivor count: 3 of 6

## N#CSC1=C(SC#N)C1(F)F
dose: 100.0 mg/kg/injection, schedule: Q04DX002 (ip), vehicle: Klucel (hydroxypropylcellulose) (HPC)
  survivor count: 0 of 6
dose: 200.0 mg/kg/injection, schedule: Q04DX002 (ip), vehicle: Klucel (hydroxypropylcellulose) (HPC)
  survivor count: 1 of 6
dose: 400.0 mg/kg/injection, schedule: Q04DX002 (ip), vehicle: Klucel (hydroxypropylcellulose) (HPC)
  survivor count: 0 of 6

## Nc1c(/C=C/c2cc3cc(C4=NCCN4)ccc3o2)[nH]c2cc(C3=NCCN3)ccc12
dose: 12.5 mg/kg/injection, schedule: Q01DX005 (ip), vehicle: Klucel (hydroxypropylcellulose) (HPC)
  T/C: 128 % of control
dose: 25.0 mg/kg/injection, schedule: Q01DX005 (ip), vehicle: Klucel (hydroxypropylcellulose) (HPC)
  T/C: 139 % of control
[8]
  T/C: 143 % of control [5 of 6 alive]
[9]
  survivor count: 0 of 6

## CC(=O)O[C@@H]1CO[C@H]2O[C@H]3[C@@H](C(C=O)=C[C@H](O)[C@@H]4C5=C(C(C)C)CC[C@]5(C)CC[C@@]34C)[C@@]2(O)C1=O
dose: 1.56 mg/kg/injection, schedule: Q01DX009 (ip), vehicle: Klucel (hydroxypropylcellulose) (HPC)
  T/C: 139 % of control
dose: 12.5 mg/kg/injection, schedule: Q01DX009 (ip), vehicle: Klucel (hydroxypropylcellulose) (HPC)
  survivor count: 0 of 6
[10]
  survivor count: 3 of 6
[1]
  survivor count: 0 of 6

## C[n+]1c2ccccc2c2c3c(cccc31)C(=O)c1cc(Cl)ccc1-2 (tested in a mixture with another compound)
dose: 25.0 mg/kg/injection, schedule: Q01DX009 (ip), vehicle: water
  survivor count: 2 of 6
dose: 50.0 mg/kg/injection, schedule: Q01DX009 (ip), vehicle: water
  survivor count: 0 of 6
dose: 100.0 mg/kg/injection, schedule: Q01DX009 (ip), vehicle: water
  survivor count: 0 of 6

## Clc1cnc2n[se]nc2c1
dose: 200.0 mg/kg/injection, schedule: Q04DX002 (ip), vehicle: saline
  survivor count: 1 of 6
dose: 400.0 mg/kg/injection, schedule: Q04DX002 (ip), vehicle: saline
  survivor count: 0 of 6

## O=C1c2ccccc2C(=O)c2c1ccc1c2OCO1
dose: 40.0 mg/kg/injection, schedule: Q01DX005 (ip), vehicle: Klucel (hydroxypropylcellulose) (HPC)
  survivor count: 6 of 6
dose: 80.0 mg/kg/injection, schedule: Q01DX005 (ip), vehicle: Klucel (hydroxypropylcellulose) (HPC)
  survivor count: 6 of 6
dose: 160.0 mg/kg/injection, schedule: Q01DX005 (ip), vehicle: Klucel (hydroxypropylcellulose) (HPC)
  survivor count: 6 of 6

## CCCCCCCCCCCCOC(=O)c1ccc(Br)cc1
[1]
  survivor count: 6 of 6

## C=C(Cl)CC(N)C(=O)O (stereo not drawn)
[9]
  survivor count: 2 of 5

## O.O.[Cu+2].[Cu+2].[NH-]CCC(=O)[N-]C(Cc1cnc[nH]1)C(=O)O.[NH-]CCC(=O)[N-]C(Cc1cnc[nH]1)C(=O)O (stereo not drawn)
[8]
  survivor count: 0 of 5
dose: 100.0 mg/kg/injection, schedule: Q01DX005 (ip), vehicle: Klucel (hydroxypropylcellulose) (HPC)
  survivor count: 0 of 5
[9]
  survivor count: 0 of 5

## O=C1[C@@H]2C3C=CC([C@H]4C(=O)N(CO)C(=O)[C@@H]34)[C@@H]2C(=O)N1CO
[10]
  T/C: 132 % of control
[1]
  T/C: 127 and 140 % of control
[2]
  T/C: 137 and 144 % of control

## NS(=O)(=O)c1ccc(NC(=O)CCl)cc1
[2]
  survivor count: 2 of 6
[4]
  survivor count: 0 of 6

## C[CH2][Sn]1([CH2]C)[O]C(=O)CCCCC(=O)[O]1
dose: 25.0 mg/kg/injection, schedule: Q04DX003 (ip), vehicle: saline
  T/C: 126 % of control
dose: 50.0 mg/kg/injection, schedule: Q04DX003 (ip), vehicle: saline
  T/C: 134 % of control
dose: 100.0 mg/kg/injection, schedule: Q04DX003 (ip), vehicle: saline
  T/C: 131 and 147 % of control
dose: 200.0 mg/kg/injection, schedule: Q04DX003 (ip), vehicle: saline
  survivor count: 0 of 6
dose: 400.0 mg/kg/injection, schedule: Q04DX003 (ip), vehicle: saline
  survivor count: 0 of 6

## COc1ccc(/C(=C/c2c(C(=O)O)oc3ccccc23)c2ccccc2)cc1
dose: 400.0 mg/kg/injection, schedule: Q01DX001 (ip), vehicle: saline with Tween-80
  survivor count: 1 of 6

## O=c1cc(-c2ccccc2)nc(Sc2ccc([N+](=O)[O-])cc2[N+](=O)[O-])[nH]1
[1]
  survivor count: 6 of 6
[2]
  survivor count: 6 of 6

## CCCCCCCCCCCCCCCC[N+](C)(CCO)Cc1ccccc1 (stereo not drawn)
dose: 25.0 mg/kg/injection, schedule: Q04DX002 (ip), vehicle: saline with Tween-80
  survivor count: 5 of 6

## CCN(CC)CCNC1=C(Cl)C(=O)c2ccccc2C1=O
dose: 25.0 mg/kg/injection, schedule: Q01DX009 (ip), vehicle: distilled water + Tween-80
  survivor count: 0 of 6
dose: 25.0 mg/kg/injection, schedule: Q01DX009 (ip), vehicle: saline
  survivor count: 6 of 6
dose: 50.0 mg/kg/injection, schedule: Q01DX009 (ip), vehicle: distilled water + Tween-80
  survivor count: 0 of 6
dose: 100.0 mg/kg/injection, schedule: Q01DX009 (ip), vehicle: distilled water + Tween-80
  survivor count: 0 of 6
dose: 200.0 mg/kg/injection, schedule: Q01DX009 (ip), vehicle: distilled water + Tween-80
  survivor count: 0 of 6
dose: 400.0 mg/kg/injection, schedule: Q01DX009 (ip), vehicle: distilled water + Tween-80
  survivor count: 0 of 6

## Cc1ccc(S(=O)(=O)N2C(=O)CCC2=O)cc1
[7]
  survivor count: 2 of 6
